# Laboratory results from PubChem BioAssay AID493014 (National Center for Advancing Translational Sciences (NCATS), 2011).
# This is one part of the list. These are further read-outs of the screen, such as a control signal, another cell line or another target. No call is given for them. The list favours compounds with an active or inconclusive main result. The note in brackets gives the kind of curve behind each potency; many fits are weak.
# Assay: qHTS Assay to Find Inhibitors of Chronic Active B-Cell Receptor Signaling
# Conditions: ABC-DLBCL IkBa-CBG/CBR reporter, luminescence ratio (green luciferase fused to IkBa over red control in TMD8 lymphoma cells), 4 h
# In short: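 Doxycycline induced both beetle luciferases in TMD8 lymphoma cells; IKK-driven degradation limits the IkappaBalpha-fused green signal, while red luminescence normalises for cell number and nonspecific effects. Compounds tested up to 46 uM, 4 hrs.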
# [1] = measured here: CBR red luminescence, cell number
# [2] = measured here: IkBa-CBG green luminescence
SMILES,AC50 [1],AC50 [2]
COc1cc(/C=N/NC(=O)c2cc(O)cc(O)c2)ccc1OC(=O)c1ccccc1,"10 µM [falling, partial curve, poor fit]",
Cc1nn(CC(=O)NCCCc2ccccc2)c(=O)c2cccn12,"35.5 µM [rising, single point]",
COc1ccc(-c2cc3nnc(-c4ccccc4)nc3s2)cc1,"0.013 µM [falling, full curve, poor fit]",
CN(C(=O)c1cc2nc(-c3ccco3)cc(C(F)(F)F)n2n1)C1CCCCC1,"1.12 µM [falling, full curve, poor fit]",
Cc1ccccc1OCCC(=O)Nc1ccc(S(=O)(=O)N(C)C2CCN(C)CC2)cc1,"18.4 µM [falling, partial curve, poor fit]",
CCCCC(=O)Nc1c(-c2ccc(OC)c(OC)c2)c(=O)c2ccccc2n1C,"22.4 µM [rising, partial curve, poor fit]",
CCN1CC(CN(C)Cc2nc(-c3ccco3)oc2C)CC1=O (stereo unspecified),"0.251 µM [rising, full curve, poor fit]",
O=C1N[C@H](Cc2ccccc2)COC(=O)[C@H](Cc2ccc(F)cc2)C/C=C\C[C@@H]1CC(=O)N(CCO)Cc1ccccc1,"0.731 µM [falling, full curve, poor fit]",
CCn1c(=O)cc(SCC(=O)N2CCN(c3ccccc3F)CC2)c2ccccc21,"0.447 µM [rising, full curve, poor fit]",
COc1cccc(NC(=O)CN(C)C(=O)c2cc(C3CC3)nn2-c2ccccc2)c1,"25.9 µM [falling, single point]",
CC1(C)CNC(=O)c2sc(NC(=O)c3ccccc3)nc2C1,"1.58 µM [falling, full curve]",
NN/C(=C\[N+](=O)[O-])Nc1ccccc1,"8.91 µM [falling, partial curve]",
COc1ccc(F)cc1S(=O)(=O)N1CCN(c2ccccn2)CC1,"11.2 µM [rising, partial curve, poor fit]",
N#CCCn1ccc(NC(=O)c2ccc(Cl)cc2)n1,"3.66 µM [rising, partial curve, poor fit]",
COc1ccc(-c2nncnn2)cc1,"29.1 µM [falling, partial curve, poor fit]",
CCOC(=O)c1nc(-c2ccc3c(c2)OCO3)[nH]c1C,"29.1 µM [falling, single point]",
Fc1ccc(/C=N/n2c(-c3cccs3)n[nH]c2=S)cc1,"1.84 µM [rising, partial curve, poor fit]",
O=[N+]([O-])c1ccc(CSc2ccccn2)cc1,"35.5 µM [rising, single point]",
COc1cc(S(C)=O)ccc1-c1nc2ncccc2[nH]1 (stereo unspecified),"14.6 µM [falling, single point]",
CN(c1ccc(OCC(=O)OCc2nnc(-c3ccccc3)o2)cc1)S(=O)(=O)c1ccc(Cl)cc1,"6.51 µM [rising, single point]",
O=C(CSc1nc2ccccc2s1)N1c2ccccc2Sc2ccccc21,"0.1 µM [rising, full curve, poor fit]",
COc1ccc(C2C(=O)N(C3CCCCC3)CC(=O)N2C2CCCCC2)cc1 (stereo unspecified),"2.91 µM [rising, single point]",

# Part of the list above, with tabs:
SMILES	AC50 [1]	AC50 [2]
COc1ccc(-c2cc3nnc(-c4ccccc4)nc3s2)cc1	0.013 µM [falling, full curve, poor fit]	
CCn1c(=O)cc(SCC(=O)N2CCN(c3ccccc3F)CC2)c2ccccc21	0.447 µM [rising, full curve, poor fit]	

# Remaining list, next part:

SMILES,AC50 [1],AC50 [2]
O=C(Nc1cccc(NC(=O)c2sc3ccccc3c2Cl)c1)c1ccco1,"2.59 µM [falling, partial curve, poor fit]",
O=S(=O)(Nc1ccc(-c2nnc(SCc3ccc(Cl)cc3)o2)cc1)c1ccccc1,"16.4 µM [falling, single point]",
O=S(=O)(Nc1ccc(Cl)c(Cl)c1)N1CCOCC1,"31.6 µM [rising, single point]",
CCOc1ccc(NC(=O)CN(C)C(=O)c2ccccc2OCc2cccc(C)c2)cc1OCC,"18.4 µM [falling, single point]",
Cc1ccc2cc(C(c3nnnn3C3CCCC3)N(Cc3ccco3)Cc3cccs3)c(=O)[nH]c2c1 (stereo unspecified),"29.1 µM [rising, single point]",
COc1cc(NC(=O)C/C(C)=N/NC(=O)c2ccccn2)c(OC)cc1Cl,"12.6 µM [falling, partial curve, poor fit]",
Cc1cccc(NC(=O)C2CCN(S(=O)(=O)c3ccc4ccccc4c3)CC2)n1,"20.6 µM [falling, single point]",
O=C(N/N=C\c1ccc(OC(=O)c2cccs2)cc1)c1ccc(Cl)cc1,"23.1 µM [falling, single point]",
Cc1ccnc(NC(=O)Nc2ccc(F)cc2)c1,"12.6 µM [falling, single point]",
CC1CCN(c2nc(-c3ccc(Br)cc3)nc3ccccc23)CC1,"0.0891 µM [rising, full curve, poor fit]",
Nc1[nH]n2c(=O)c3c(nc2c1N=Nc1ccccc1)CCCC3,"0.891 µM [falling, full curve]",
COC(=O)c1sccc1NC(=O)NC1CCCCC1,"4.47 µM [falling, partial curve]",
Cc1ccc2cc(CN(Cc3ccco3)C(=O)c3cccs3)c(=O)[nH]c2c1,"0.651 µM [falling, partial curve, poor fit]",
CCOc1ccc(-c2nc(C#N)c(N3CCOCC3)o2)cc1,"11.2 µM [rising, single point]",
Cn1cccc1/C=C1\SC(=Nc2ccc(O)cc2)NC1=O,"5.01 µM [falling, partial curve]","2.24 µM [falling, full curve]"
COc1cc(/C=C(\C#N)C(=O)NCc2ccccc2)ccc1OCc1ccc(C(=O)O)cc1,"10 µM [falling, partial curve, poor fit]",
COc1cc(CNCCO)cc(Br)c1OCc1ccccc1,"14.1 µM [falling, single point]",
Cc1c(/C=N\NC(=O)c2cccc(F)c2)cnn1C,"18.4 µM [falling, single point]",
CCOc1ccc(CCNC(=O)CCc2nnc3ccc(N4CCOCC4)nn23)cc1OCC,"2.82 µM [rising, single point]",
COc1ccc(CNC(=O)c2cc(-c3ccc(OC)c(OC)c3)on2)cc1,"0.231 µM [falling, full curve]",
O=c1[nH]c2ccccc2cc1CN(CC1CCCO1)S(=O)(=O)c1ccccc1 (stereo unspecified),"3.16 µM [falling, full curve]",
O=C(Nc1ccc(-c2nc3ccccc3o2)cc1)C1CCCO1 (stereo unspecified),"5.8 µM [falling, partial curve, poor fit]",

SMILES,AC50 [1],AC50 [2]
COc1ccccc1NC(=O)c1ccc(-c2ccccc2[N+](=O)[O-])o1,"12.6 µM [falling, partial curve, poor fit]",
Cc1ccc(C(=O)N2CCC(C(=O)NCc3cccnc3)CC2)cc1,"18.4 µM [rising, single point]",
Cc1ccc(Nc2nc(Cl)nc(NC3CCCCC3)n2)cc1,"1.41 µM [falling, full curve, poor fit]",
CCOC(=O)c1[nH]c2ccc(C)cc2c1N,"23.1 µM [falling, single point]",
CCc1ccc(NC(=O)CSc2ccccn2)cc1,"1.26 µM [rising, partial curve, poor fit]",
COc1ccc(-c2nnn(CC(=O)c3c[nH]c4ccccc34)n2)cc1OC,"6.51 µM [rising, single point]",
CCCC(=O)NC(NC1CCS(=O)(=O)C1)C(Cl)(Cl)Cl (stereo unspecified),"10 µM [rising, partial curve, poor fit]",
Cc1cnc(NC(=O)/C=C/c2ccc(Br)o2)s1,"0.794 µM [rising, partial curve, poor fit]",
COc1ccc(-c2csc3ncnc(Cl)c23)cc1,"3.16 µM [falling, partial curve, poor fit]",
COCCn1c(SCC(=O)N2CCCCCC2)nc2c(c1=O)SCC2,"14.1 µM [falling, partial curve]",
COc1cccc(/C=N/Nc2ncc(C(F)(F)F)cc2Cl)c1O,,"0.231 µM [falling, partial curve, poor fit]"
O=S(=O)(c1cccc2nsnc12)N1CCCC1,,"17.8 µM [falling, partial curve, poor fit]"
Cc1ccccc1Nc1nnc(SCc2cc(=O)n3ccsc3n2)s1,"0.891 µM [falling, full curve, poor fit]",
Cc1ccc(/C=N/NC(=O)C2COc3ccccc3O2)s1 (stereo unspecified),"20.6 µM [rising, partial curve]","20.6 µM [falling, partial curve]"
Cc1ccc(S(=O)(=O)/N=C(\N)Nc2nc(C)c3cc(C)ccc3n2)cc1,"11.2 µM [falling, partial curve, poor fit]",
O=C(CCC(=O)N1CCOc2ccccc21)NCCCN1CCN(Cc2ccccc2)CC1,"35.5 µM [falling, single point]",
COc1ccc(Nc2c3c(c(C#N)c4nc5ccccc5n24)CCC3)cc1,"3.55 µM [falling, partial curve, poor fit]",
Cc1cc([N+](=O)[O-])nn1CCCC(=O)Nc1cc(Oc2ccc(F)cc2)cc([N+](=O)[O-])c1,"11.6 µM [rising, partial curve, poor fit]",
CSc1ccc(C=NNc2ccc(S(=O)(=O)Nc3ccccc3C(=O)O)cc2[N+](=O)[O-])cc1,"18.4 µM [rising, single point]",
COc1ccc(C(=O)Nc2cccc(OC(=O)c3ccco3)c2)cc1,"11.2 µM [falling, partial curve, poor fit]",
